This note sets out measurements from PubChem BioAssay AID1508600 (Functional Genomics Laboratory (NCATS/FGL), 2020).

Out of some 53,000 sequences screened, about 3,700 (7%) were called active.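 How the source made its calls: active means gene knockdowns whose robust z-score for IL-1 alpha signal is at least 2 or at most -2, so actives lie on both sides; inactive means the rest.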 This is one part of the list.

A short description of this assay: Components of the Cytosolic LPS Sensing Pathway: Gene Identification via Genome-wide siRNA Screen.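 Further: robust z of the log signal after scaling to non-targeting control siRNA wells of the plate.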 The settings on record: RAW264.7 macrophages, IL-1a HTRF, actives lie on both sides, screened at 100 nM (by protocol), cells primed 5 h with Pam3CSK4 first. The procedure, abridged: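 IL-1a HTRF of supernatants after 24 hour LipidA transfection of Pam3CSK4-primed (5 hours) RAW264.7 cells, 48h post-siRNA transfection (100 nM). Scores: percent of plate negative-control median, then log-based robust z-score.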
Background: Time-resolved FRET reads energy transfer from a long-lived donor to a nearby acceptor.
Take CCUAUUACUCAAACACAGATT against Arl5b: the z-score was inactive: -0.257.

Take GCUCAUAAAACUCCAAAAGTT against Mob4: the z-score was inactive: -0.713.

Take CAAGGACGGGCUUCUAGUUTT against Vmn1r189: the z-score is inactive: -0.0593.

As to CCCUUUCGGGCAAUGGACUTT against Olfr986, the z-score is inactive: -0.0157.

On to GCUCUCACCUUCAUUUGAATT against Tmem174, for which the z-score is inactive: -1.37.

Regarding GGAUGAUGGCUGUAUUUUGTT against Hoxb5, the z-score is inactive: -0.0594.

In the case of CCACCCAUAUUAUAAUUGUTT against Olfr722, the z-score was inactive: 0.0235.

In the case of GGUGAUGUGUAGUGAAUGGTT against Il13, the z-score is inactive: -1.94.

Take GGCCAAUGCCUACAAGUAGTT against Dus3l: the z-score is inactive: -1.94.

On to CCGAAUUGGACUCCACCAATT against Gdf6, for which the z-score was inactive: -1.35.

For the sequence GCUGUAUCCAGCUUUUCGGTT against Tcf3, the z-score is inactive: -0.43.

With CCCAAGAUACCACUUCAUUTT against Arpin, the z-score is inactive: -0.742.

Consider GGAUGUUGUGGGAAAUGACTT against Plaat1, for which the z-score was inactive: -0.27.

Take CCUAUAACUCCAAGGAUACTT against Lexm: the z-score was inactive: 0.628.

As to GGCAAGAAGAAGGAGAAGCTT against Atp4a, the z-score is inactive: 0.235.

On to CCAGAAUGGCUAAGGGAAATT against Ccdc149, for which the z-score is inactive: 0.495.

As for CGGAGGCUUUUACCAAGUCTT against Tirap, the z-score is inactive: -0.794.

For the sequence CCUAAUAUGCCAUGGUUCATT against Eef1a2, the z-score was inactive: -0.029.

With CGGCCUUAUCCAGUUAUGATT against Paqr8, the z-score was inactive: -0.891.

For the sequence GGCUUCAAGUCUGUUCAACTT against Slc35e4, the z-score was inactive: -0.232.

In the case of CGAGAUGACCUCCUUUAUATT against Ephb3, the z-score is inactive: 0.284.

For GGUACAGUGUCAUCAUGAATT against Olfr460, the z-score was inactive: -0.456.

Turning to GGCUAUAGCAGCACAUUGGTT against Ylpm1, the z-score was active: 2.57.

Consider CCUCUCAUAUCAUAGGUAATT against Mars2, for which the z-score is inactive: -0.2.

As for GGUAGCAGAGCAGCUUAUUTT against Best2, the z-score is inactive: -0.618.

In the case of GGCCAUCAAGAAAGUCAAGTT against Dusp26, the z-score is inactive: 1.57.

For GGAAAUGGCCUCCAUGAGATT against Krt14, the z-score was inactive: 0.734.

Consider GGAAUGCCUGCAUAAGUUUTT against Nelfcd, for which the z-score was inactive: 0.433.

For GGAAUACCAAAGUAUGAAGTT against Syne3, the z-score was inactive: -0.602.

Turning to CCUAGAAAGUCUUGGUGGATT against Fam71f1, the z-score was inactive: 1.16.

Turning to CCUACAGAUAGGUAUGUAGTT against Exo1, the z-score was active: -2.07.

With GGGAAUUUAUGCAUUAGCATT against Kif2a, the z-score was inactive: 0.111.

With GGCUAAGGCUCAACUAUUGTT against Nat8l, the z-score is inactive: -0.512.

In the case of GGUAACACUGUCCACCACUTT against Olfr348, the z-score was inactive: -0.0378.

With GGAUCUGCUGGAAUCUCAGTT against Zmym3, the z-score is inactive: 0.445.

Regarding GGAUGUCAAUGAGGUUUUUTT against Mpp5, the z-score is inactive: 1.91.

GGUGUAGGGAAUUGUGAAUTT against Rpia: the z-score was inactive: -0.218.

Consider CCUGCCUGACAUUCCUAUUTT against Zdhhc19, for which the z-score is inactive: -0.642.

On to GGAGAUAUUAUUGUUCAGATT against Cemip2, for which the z-score is inactive: -0.337.

Consider GGAAAAGGUUUUGUAGAAUTT against Pspc1, for which the z-score was inactive: -0.568.

CCUAACUAAGCUUUCCUUUTT against Vmn2r30: the z-score is inactive: 0.0977.

Take CCCAUCUUUUAGAAAAUGGTT against Fnip1: the z-score is inactive: 0.546.

Take CCGGAUUGCACAUCAUCGATT against Lrrc52: the z-score was inactive: -0.533.

GGCGAUUUACAAGCUGAAGTT against Guca1b: the z-score was inactive: 0.566.

Consider GGAUAAAGUGAGGAUUCUATT against Pcdhga4, for which the z-score was inactive: -0.647.

On to GCAGUACGAAAUGGUAUACTT against Chd6, for which the z-score was inactive: -1.7.

Regarding GGGUAAAAAGACGAAGAAATT against Atad2b, the z-score is inactive: 0.974.

GGCACUGCACGACAUAGCUTT against Ido1: the z-score was inactive: -0.279.

For GGAAGUCUAAAGAACAGGATT against Fbxo8, the z-score was inactive: -1.12.

For GGUUCCUCUUUUCCUGGUATT against Olfr1499, the z-score was inactive: 0.216.

On to “GCCAAUGUCGGAAAAAAUUTT against Spata31d1d”, for which the z-score is inactive: 0.977.

As for CCUUGGAAUCAAUGUCACGTT against Siah2, the z-score was inactive: 1.06.

Regarding GGAAAAAGAGCAAAAGUCGTT against Rbm39, the z-score is inactive: -0.586.

Take GGCCGUACCUAUGAUCUAUTT against Lrfn3: the z-score is inactive: 0.636.

For the sequence GGGUUCUGGGAAGGUAUAUTT against Olfr705, the z-score is active: -2.54.

Consider GGCGGAAAUUCCAAUGGUGTT against Fn1, for which the z-score was inactive: 0.284.

As to GCCCUACAGCAGACUAGAATT against Vax2, the z-score was inactive: -1.5.

As for CCAAAGUUUUAUCAGUUUGTT against Gpr87, the z-score was inactive: 0.653.

On to AGCAGUUGGCUUUUCUAACTT against Paqr9, for which the z-score was inactive: 1.87.

Turning to GCGAAGAAGAAGUCGCUCCTT against Clk2, the z-score was inactive: 0.403.

As to CCAGUGCCUAUUAAAAUGCTT against Sox30, the z-score is inactive: -0.27.

On to GGAAUAGUAGCAAAACAGATT against Ppm1l, for which the z-score is inactive: -0.612.

Consider GGUUCCUGAAAUCAAAUAUTT against Rgs1, for which the z-score was inactive: 1.62.

For GGCUCAGCUUUUCUGUCAUTT against Cd200r3, the z-score is inactive: -1.26.

As for GGAUUGUCCUUCGACUACGTT against Itgb3, the z-score was inactive: 0.47.

GCUGACCAGUAAGUUGUAUTT against Zswim5: the z-score is inactive: -0.612.

GGAAAAUUGAGAUUUCUGCTT against Smim14: the z-score was inactive: 0.0777.

“GGUCUCAGCAAUCUGUUCCTT against 1700029I15Rik”: the z-score was active: -2.15.

Turning to GGUACAAAAGUUAAAGAGATT against Uchl5, the z-score is inactive: -0.55.

As for CGGCUUUGAAGUGGUGUAUTT against Smad9, the z-score is inactive: 1.66.

Consider CCCAAUAGGCAACUCCGAATT against Fam229b, for which the z-score is inactive: 0.639.

With GGUCUUUAGAAUUAGGCUCTT against Pml, the z-score was inactive: 0.188.

Regarding CGAGAAUAUGUGAGAGCUUTT against Dcaf13, the z-score was inactive: -0.793.

On to GGUAGAAAGUAACAGGAAGTT against Adhfe1, for which the z-score is inactive: -0.523.

Consider GGUUAAUAGCAACAACCAGTT against Kifc3, for which the z-score is inactive: 1.61.

GCCCAGGACAAUAUAUCCGTT against Myl12b: the z-score is inactive: 0.867.

Consider GCCAUAUCAACUAGUGCAGTT against Siglech, for which the z-score was active: 2.36.

In the case of GGAAAUAGCUAAUCAGAAATT against Sap130, the z-score was inactive: 0.832.

Take GGCUCAGAUCUUUGACUACTT against Pnp: the z-score is inactive: -0.232.

On to GGUGCUUUAUUCAUAAAGATT against Gprc5b, for which the z-score was inactive: -0.305.

Turning to CCUAAUUGAAAUCAGCAGUTT against Hip1r, the z-score is inactive: 1.14.

As for CGCGGAGGACUACAAUGAGTT against Katnb1, the z-score is inactive: 0.668.

As for GCAUUAAGGUCUUACUCCATT against Rufy1, the z-score is inactive: 0.828.

Turning to GGUGAAUGAGGACUCUGGGTT against Dcps, the z-score is inactive: -1.07.

Turning to CCAGAUCUCAAAAAUCCAUTT against Mok, the z-score was inactive: -0.538.

As for CCCAGAUUACCGUAAGCGATT against Jup, the z-score was inactive: 0.264.

For the sequence CGGGAAGUAAACAUUUCCATT against Rassf6, the z-score was inactive: 0.527.

Regarding GGAACAAACUUGAACUCUCTT against Srsf11, the z-score is inactive: 1.2.

GGACCUUCGAAGUGCUAUGTT against Apbb1: the z-score was inactive: -0.32.

As to GCCCAUGAAUUUUUACUUATT against Prr14l, the z-score is inactive: 0.341.

GCAUUCAGAAAGUGUAUAATT against Tspan3: the z-score is inactive: -0.0953.

Consider GGUAUCAGCUUCAGUAGCCTT against Zfp668, for which the z-score was inactive: -0.103.

In the case of GGACUACAAGGAUAACCCGTT against Sugp1, the z-score is inactive: -1.05.

In the case of GCUACUGAGAACAUAAACCTT against Hoxd4, the z-score is inactive: 0.0889.

Regarding GGGUGAGAAUGACCACUUUTT against Kcnq2, the z-score is inactive: -0.846.

In the case of UGGGUGAUCUCUGUAAUAATT against Defb50, the z-score was inactive: -0.404.

On to GGGCCAGACUCCAUACUAUTT against Arid1a, for which the z-score was active: 3.71.

Regarding GCUCGGUUUACUUAAAGUGTT against Alg2, the z-score is inactive: -0.0505.

For GGAUUUUCACCGGAUAAAATT against Mtfr1l, the z-score is inactive: -0.322.

Regarding GGUUUAUCUCAAGUCUCAATT against Wdr74, the z-score is inactive: -0.446.

On to CCCGUGCUGAAGCUAAUAGTT against Tkfc, for which the z-score is inactive: -0.493.

Consider ACACUCAUAGUCCAUUGUUTT against Xkr9, for which the z-score was inactive: -0.564.

In the case of GGACUGGUAGUUCUGAUUUTT against Ppm1g, the z-score is inactive: -0.683.

In the case of GCACAUCACAAGAAUUACUTT against Lhfpl1, the z-score was inactive: -0.0486.

In the case of GCACUGAAGUUUAGUAAAATT against Stag3, the z-score is inactive: -1.11.

For the sequence GGAUGAAGACAGUCAAAUGTT against Lypd3, the z-score was inactive: 0.261.

Turning to GCUAAAAACAACUAGGAAATT against Wdr60, the z-score was inactive: 0.391.
